Experimental data: PubChem BioAssay AID1259308 (NCATS, 2017)

Purpose: 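Knock-downs that increase output of a recombinant reporter protein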 (primary screen)
System: human HEK293 embryonic kidney cells stably expressing firefly luciferase (HEK-CMV-Luc2-Hygro)
Knock-down reagent: single siRNA against human genes, 0.8 pmol siRNA per well
Duration: 72 h
Measurement: 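Luciferase light (ONE-Glo) measured on one replicate plate set and viability (CellTiter-Glo) on the other, scaled to a negative control siRNA, with robust z-scores and luciferase per cell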
Scale: total luciferase, z-score: higher = more reporter protein produced
Call rule: 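Active when the median/MAD z-score for overall luciferase is greater than 3; a gene was taken forward for validation with new siRNAs if at least two of its three siRNAs passed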
Meaning of the calls: active = raised luciferase; inactive = no rise
The deposit covers about 59,000 reagents; below is a part drawn at random. Of all reagents, about 1,510 (2.6%) got an active call. 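Calls use total luciferase alone and ignore viability, so some active siRNAs may act by altering cell number.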 The numbers tell different reagents against one gene apart. Not all columns of the deposit are shown.

no.	target	reagent	total luciferase, z-score	call
1	CSKMT (citrate synthase lysine methyltransferase)	1	0.313	inactive
2	CSKMT (citrate synthase lysine methyltransferase)	2	-0.298	inactive
3	CSKMT (citrate synthase lysine methyltransferase)	3	2.32	inactive
4	IL17RD (interleukin 17 receptor D)	1	-0.922	inactive
5	IL17RD (interleukin 17 receptor D)	2	-0.733	inactive
6	IL17RD (interleukin 17 receptor D)	3	0.164	inactive
7	OR8S1 (olfactory receptor family 8 subfamily S member 1)	1	-1.44	inactive
8	OR8S1 (olfactory receptor family 8 subfamily S member 1)	2	-0.681	inactive
9	OR8S1 (olfactory receptor family 8 subfamily S member 1)	3	2.4	inactive
10	DYSF (dysferlin)	1	-0.576	inactive
11	DYSF (dysferlin)	2	-0.277	inactive
12	DYSF (dysferlin)	3	0.444	inactive
13	MAP3K5 (mitogen-activated protein kinase kinase kinase 5)	1	-0.846	inactive
14	MAP3K5 (mitogen-activated protein kinase kinase kinase 5)	2	0.212	inactive
15	MAP3K5 (mitogen-activated protein kinase kinase kinase 5)	3	-0.072	inactive

4 neighbouring reagents already listed:
no.	target	reagent	total luciferase, z-score	call
9	OR8S1 (olfactory receptor family 8 subfamily S member 1)	3	2.4	inactive
10	DYSF (dysferlin)	1	-0.576	inactive
11	DYSF (dysferlin)	2	-0.277	inactive
12	DYSF (dysferlin)	3	0.444	inactive

Additional results follow:
no.	target	reagent	total luciferase, z-score	call
16	GFOD1 (Gfo/Idh/MocA-like oxidoreductase domain containing 1)	1	0.551	inactive
17	GFOD1 (Gfo/Idh/MocA-like oxidoreductase domain containing 1)	2	-1.17	inactive
18	GFOD1 (Gfo/Idh/MocA-like oxidoreductase domain containing 1)	3	1.1	inactive
19	GFOD1 (Gfo/Idh/MocA-like oxidoreductase domain containing 1)	4	-0.647	inactive
20	GFOD1 (Gfo/Idh/MocA-like oxidoreductase domain containing 1)	5	0.34	inactive
21	GFOD1 (Gfo/Idh/MocA-like oxidoreductase domain containing 1)	6	-0.544	inactive
22	P2RY2 (purinergic receptor P2Y2)	1	0.103	inactive
23	P2RY2 (purinergic receptor P2Y2)	2	-1.8	inactive
24	P2RY2 (purinergic receptor P2Y2)	3	1.9	inactive
